Results from paper PMC8298471.
These are yes or no findings as the source states them, for the method shown. Binding seen in cells or lysates may run through a third protein. Some binding calls cover weakened binding; strength is not graded here.

The chains behind the UniProt entries cited, without tags or fusion partners.
UniProt P32302: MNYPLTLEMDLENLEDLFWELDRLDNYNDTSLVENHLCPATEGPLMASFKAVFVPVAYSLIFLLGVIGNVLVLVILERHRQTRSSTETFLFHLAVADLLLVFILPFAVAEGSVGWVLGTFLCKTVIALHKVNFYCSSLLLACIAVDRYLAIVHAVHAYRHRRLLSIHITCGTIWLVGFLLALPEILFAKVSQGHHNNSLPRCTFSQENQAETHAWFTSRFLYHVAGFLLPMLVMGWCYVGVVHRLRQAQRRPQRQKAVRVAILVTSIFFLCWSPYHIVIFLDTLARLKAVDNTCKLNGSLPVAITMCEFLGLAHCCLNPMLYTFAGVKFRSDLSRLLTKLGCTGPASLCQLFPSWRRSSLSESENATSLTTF
UniProt P04899: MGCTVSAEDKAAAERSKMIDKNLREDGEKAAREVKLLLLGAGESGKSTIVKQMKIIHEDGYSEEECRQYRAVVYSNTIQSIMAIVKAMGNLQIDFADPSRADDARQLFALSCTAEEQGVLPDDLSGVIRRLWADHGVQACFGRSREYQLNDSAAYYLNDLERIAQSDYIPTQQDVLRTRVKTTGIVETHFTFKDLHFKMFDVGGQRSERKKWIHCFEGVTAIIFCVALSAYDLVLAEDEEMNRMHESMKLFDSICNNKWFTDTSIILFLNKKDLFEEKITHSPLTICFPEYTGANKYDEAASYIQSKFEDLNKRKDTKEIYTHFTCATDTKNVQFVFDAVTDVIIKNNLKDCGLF

What was measured:
[1] = target: C-X-C chemokine receptor type 5 (CXCR5), endogenous (human (endogenous in HUVECs)) (UniProt P32302); assay: co-IP; endogenous proteins in HUVEC lysates (40 mM HEPES pH 7.4, 2 mM EDTA, 0.5% Triton X-100); indicated antibody overnight at 4 °C, protein A/G agarose, five washes, western blot; normal conditions (Fig. 4a, Supplementary Fig. 4d); also HG + oxLDL with or without melatonin (Fig. 6g)
[2] = target: C-X-C chemokine receptor type 5 (CXCR5), endogenous (human (endogenous in HUVECs)) (UniProt P32302); assay: co-IP; HUVECs transfected with GNAI2-WT or GNAI2-C66A, treated with HG + oxLDL; lysates (40 mM HEPES pH 7.4, 2 mM EDTA, 0.5% Triton X-100); indicated antibody overnight at 4 °C, protein A/G agarose, western blot (Fig. 4b)

| binding [1] | binding [2] | Substance |
| --- | --- | --- |
| binds |  | guanine nucleotide-binding protein G(i) subunit alpha-2 (GNAI2), endogenous (from UniProt P04899 1-355) |
|  | binds | HA-GNAI2-WT (from UniProt P04899 1-355) |
